These are yes or no findings as the source states them, for the method shown. In cells and extracts the contact can be indirect. Some results given as binding are weak or reduced against the parent protein; the word gives no strength. Where a sequence is shown, tags or fusion partners need not be part of it.
Target: T1, HA-tagged CXCL14 (human) (UniProt O95715)
T1 sequence: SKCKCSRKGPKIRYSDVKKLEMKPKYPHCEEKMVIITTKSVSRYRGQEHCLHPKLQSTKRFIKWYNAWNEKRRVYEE
Assay: co-IP; T24 cell lysate in IP lysis buffer; anti-HA beads, or antibody overnight at 4 °C followed by Protein A/G beads for 4-6 h; three washes with cold lysis buffer; IgG as negative control; Western blot

By UniProt entry, the sequences of proteins in these tests, tags left out. Residues count along the entry.
UniProt P32248, residues 25-378: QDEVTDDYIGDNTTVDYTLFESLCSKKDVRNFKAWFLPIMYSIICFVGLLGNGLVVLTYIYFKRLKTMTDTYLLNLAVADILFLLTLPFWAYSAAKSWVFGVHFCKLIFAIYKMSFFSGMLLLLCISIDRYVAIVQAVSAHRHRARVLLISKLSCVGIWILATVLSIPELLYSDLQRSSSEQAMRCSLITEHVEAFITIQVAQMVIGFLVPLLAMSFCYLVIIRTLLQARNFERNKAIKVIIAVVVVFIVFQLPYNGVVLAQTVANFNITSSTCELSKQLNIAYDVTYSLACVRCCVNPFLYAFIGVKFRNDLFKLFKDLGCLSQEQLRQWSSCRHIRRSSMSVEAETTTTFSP

## CCR7 (from UniProt P32248 25-378) (receptor)
  binding: binds

— publication PMC12406535
